Source: US20250326817A1 (LA JOLLA INSTITUTE FOR IMMUNOLOGY, published 2025)
These are yes or no findings as the source states them, for the method shown. Some results given as binding are weak or reduced against the parent protein; the word gives no strength.

Sequences of proteins named here, by UniProt entry; tags and fusion partners are left off. Residues count along the entry.
UniProt Q7TSA3, residues 30-183: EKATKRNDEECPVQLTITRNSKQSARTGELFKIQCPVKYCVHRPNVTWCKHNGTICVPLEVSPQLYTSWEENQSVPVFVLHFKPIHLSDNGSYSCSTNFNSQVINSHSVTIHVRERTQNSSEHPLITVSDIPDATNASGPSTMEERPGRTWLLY

B1: A76D_H86D_L90A (receptor)
chain: QPSCRQEEFLVGDECCPMCNPGYHVKQVCSEHTGTVCDPCPPQTYTADANGASKCLPCGVCDPDMGLLTWQECSSWKDTVCRCIPGYFCENQDGSHCSTCLQHTTCPPGQRVEKRGTHDQDTVCADCLTGTFSLGGTQEECLPWTNCSAFQQEVRRGTNSTDTTCSSQVVYYVVSILLPLVIVGAGIAGFLICTRRHLHTSSVAKELEPFQEQQENTIRFPVTEVGFAETEEETASN
notes: on HEK293 FreeStyle cells; also called mHVEM A76D-H86D-L90A; not shown: mCherry fused at the C-terminus (pmCherry-N1 vector) and any vector linker
B2: A76D_H86D_L90D (receptor)
chain: QPSCRQEEFLVGDECCPMCNPGYHVKQVCSEHTGTVCDPCPPQTYTADANGDSKCLPCGVCDPDMGLLTWQECSSWKDTVCRCIPGYFCENQDGSHCSTCLQHTTCPPGQRVEKRGTHDQDTVCADCLTGTFSLGGTQEECLPWTNCSAFQQEVRRGTNSTDTTCSSQVVYYVVSILLPLVIVGAGIAGFLICTRRHLHTSSVAKELEPFQEQQENTIRFPVTEVGFAETEEETASN
notes: on HEK293 FreeStyle cells; also called mHVEM A76D-H86D-L90D; not shown: mCherry fused at the C-terminus (pmCherry-N1 vector)
B3: H86R-L90A (receptor)
chain: QPSCRQEEFLVGDECCPMCNPGYHVKQVCSEHTGTVCAPCPPQTYTARANGASKCLPCGVCDPDMGLLTWQECSSWKDTVCRCIPGYFCENQDGSHCSTCLQHTTCPPGQRVEKRGTHDQDTVCADCLTGTFSLGGTQEECLPWTNCSAFQQEVRRGTNSTDTTCSSQVVYYVVSILLPLVIVGAGIAGFLICTRRHLHTSSVAKELEPFQEQQENTIRFPVTEVGFAETEEETASN
notes: on HEK293 FreeStyle cells; also called mHVEM H86R-L90A; not shown: mCherry reporter (and any vector linker) fused at the cytoplasmic C-terminus (pmCherry-N1)
B4: H86D-L90D (receptor)
chain: QPSCRQEEFLVGDECCPMCNPGYHVKQVCSEHTGTVCAPCPPQTYTADANGDSKCLPCGVCDPDMGLLTWQECSSWKDTVCRCIPGYFCENQDGSHCSTCLQHTTCPPGQRVEKRGTHDQDTVCADCLTGTFSLGGTQEECLPWTNCSAFQQEVRRGTNSTDTTCSSQVVYYVVSILLPLVIVGAGIAGFLICTRRHLHTSSVAKELEPFQEQQENTIRFPVTEVGFAETEEETASN
notes: on HEK293 FreeStyle cells; also called mHVEM H86D-L90D; not shown: mCherry reporter (and any vector linker) fused at the cytoplasmic C-terminus (pmCherry-N1)
B5: H86A-L90A (receptor)
chain: QPSCRQEEFLVGDECCPMCNPGYHVKQVCSEHTGTVCAPCPPQTYTAAANGASKCLPCGVCDPDMGLLTWQECSSWKDTVCRCIPGYFCENQDGSHCSTCLQHTTCPPGQRVEKRGTHDQDTVCADCLTGTFSLGGTQEECLPWTNCSAFQQEVRRGTNSTDTTCSSQVVYYVVSILLPLVIVGAGIAGFLICTRRHLHTSSVAKELEPFQEQQENTIRFPVTEVGFAETEEETASN
notes: on HEK293 FreeStyle cells; also called mHVEM H86A-L90A; not shown: mCherry reporter (and any vector linker) fused at the cytoplasmic C-terminus (pmCherry-N1)
B6: H86D-L90R (receptor)
chain: QPSCRQEEFLVGDECCPMCNPGYHVKQVCSEHTGTVCAPCPPQTYTADANGRSKCLPCGVCDPDMGLLTWQECSSWKDTVCRCIPGYFCENQDGSHCSTCLQHTTCPPGQRVEKRGTHDQDTVCADCLTGTFSLGGTQEECLPWTNCSAFQQEVRRGTNSTDTTCSSQVVYYVVSILLPLVIVGAGIAGFLICTRRHLHTSSVAKELEPFQEQQENTIRFPVTEVGFAETEEETASN
notes: on HEK293 FreeStyle cells; also called mHVEM H86D-L90R; not shown: mCherry reporter (and any vector linker) fused at the cytoplasmic C-terminus (pmCherry-N1)

molecular target: mouse BTLA, soluble protein (analyte of the Octet assay) (mouse) (UniProt Q7TSA3); experiment: cell-protein flow cytometry (mHVEM-mCherry cells + mBTLA-His/anti-His green)

binding, binds:
B1
B2
B3
B4
B5
B6
